Measured values from PubChem BioAssay AID1347426 (Functional Genomics Laboratory (NCATS/FGL), 2020).
The campaign covered roughly 31,000 sequences. About 1,400 (4.5%) were called active.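 Rule for the calls: active = median seed-adjusted z-score above 1 or below -1; inactive = the rest.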 The list shows a part of the results.

Assay: Novel Modifiers of Survival Motor Neuron (SMN) Protein: Gene Identification via Genome-wide siRNA Screen;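 note: luminescence tracks full-length SMN protein made from the SMN2 reporter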
Settings: HEK293T SMN2-luciferase reporter, siRNA knockdown, 72 h; actives lie on both sides
Method in brief: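 HEK293T cells stably carrying an SMN2 promoter/splicing cassette–luciferase reporter were reverse-transfected with 1 pmol siRNA per well (druggable-genome library, 3 siRNAs per gene) and grown 72 h at 37 °C. Luminescence, normalized to negative-control siRNA and log10-transformed, was scored as MAD.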

Row | Sequence | median seed-adjusted z-score
1 | GGAAGGACUGCGAACCUUATT against POLM | active: -1.55
2 | CCAUGGAGAUCGUAGUGGATT against CLCN5 | inactive: 0.856
3 | CCAUGACACGGUCCUCCAATT against ICAM2 | inactive: 0.269
4 | GGAAUAUCCUUCCACUUCATT against ADPGK | inactive: 0.373
5 | GGCGUAACUUCAGUAAACATT against PBX3 | inactive: 0.847
6 | GGAAGAAGUUGUCCGAUGATT against CYP4F3 | inactive: -0.336
7 | UGGACACCGUCACCAUGAATT against GPR78 | inactive: 0.607
8 | GACGGAGAGGAAUAAUUGATT against HEY1 | inactive: -0.023
9 | CUAUGUUCAUGGUGGAGUATT against G3BP2 | inactive: -0.336
10 | GAGCAGGACGAGUACGACATT against BCAR1 | inactive: -0.469
11 | GUUCGUGAAUGGAAUAAUATT against TTLL5 | inactive: 0
12 | GUGUCAAAGUUUUUCAUAATT against ZNF718 | inactive: 0.0564
13 | GAUACGUCCUUUUGCGGUATT against FARSB | inactive: 0.317
14 | GCAUGCUCUUUGUUAGGAATT against DARS2 | inactive: 0.0673
15 | CCAUAUUGUGGAUGGAUAATT against SEMA6A | inactive: -0.192
16 | GGUCUAAUCAUGCCGCAGATT against HUWE1 | inactive: 0.734
17 | AGACAUACUCCAAACCUUUTT against IL8 | inactive: 0.0521
18 | AGUUCAUCGAUGACAUGGATT against COL6A2 | inactive: 0.0119
19 | GCAAUGACCGUACAUCCAATT against ZNF654 | inactive: 0.199
20 | GGUUAUACACUUUCGGAUATT against MAP3K15 | inactive: -0.315
21 | GUUCAGGUUUGGUUCAAGATT against CRX | inactive: -0.156
22 | GGGACAAAGUGGGCGAACATT against SDR9C7 | inactive: 0
23 | GGAUGUUCGUGAUGCUGAATT against FUSIP1 | inactive: 0.865
24 | GCGAGUUUGUUGUGACAUUTT against JARID1A | inactive: 0.189
25 | GAAUGGAAAGUGCAACUUATT against ZNF266 | inactive: 0.426
26 | GCACUAUCCAGUUUGUGGATT against TUBA3E | inactive: -0.35
27 | GAAUGACGAUGACUUUACATT against SRBD1 | inactive: 0.169
28 | GGCCUUUCGCUGUAUCAAATT against YY1AP1 | inactive: 0.0453
29 | CCUCAGCAGUGGUACCUGUTT against FURIN | inactive: 0.0975
30 | GCCUAUCACAUUACAGAUATT against ARL9 | inactive: 0.98

From no. 10 up to 16, copied from above:
Row | Sequence | median seed-adjusted z-score
10 | GAGCAGGACGAGUACGACATT against BCAR1 | inactive: -0.469
11 | GUUCGUGAAUGGAAUAAUATT against TTLL5 | inactive: 0
12 | GUGUCAAAGUUUUUCAUAATT against ZNF718 | inactive: 0.0564
13 | GAUACGUCCUUUUGCGGUATT against FARSB | inactive: 0.317
14 | GCAUGCUCUUUGUUAGGAATT against DARS2 | inactive: 0.0673
15 | CCAUAUUGUGGAUGGAUAATT against SEMA6A | inactive: -0.192
16 | GGUCUAAUCAUGCCGCAGATT against HUWE1 | inactive: 0.734
